Results deposited as PubChem BioAssay AID504808 (Drosophila RNAi Screening Center, 2011)

Test: 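Chromatin factors that keep E2F targets switched off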 (primary screen)
Cell system: Drosophila S2 cells
Knock-down reagent: long dsRNA against Drosophila genes
Read-out: 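Dual luciferase plate measurements; E2F-specific signal taken as firefly over Renilla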
Scale: E2F firefly: higher = more E2F reporter activity; Renilla normaliser: higher = more normaliser reporter signal
Call rule: 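Called active if the normalised E2F reporter went up by over 50%; the cutoff is arbitrary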
The deposit covers about 21,000 reagents; shown is a random part of those with a known target gene and a result. Of all reagents, 18 (0.084%) got an active call. 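Raw counts without plate normalisation, one of two replicates; the ratio scores behind the calls were not deposited.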 Entries without a mark were called inactive. Names joined by + are all predicted targets of the reagent. The record does not give: the amount of reagent, the time to read-out.

| predicted target | DRSC id | E2F firefly, rep 1 | Renilla normaliser, rep 1 |
| --- | --- | --- | --- |
| bug (bunker gear) | DRSC07137 | 69964 | 3081 |
| CG32277 | DRSC08196 | 1.07e5 | 4144 |
| BOD1 (Biorientation Defective 1) | DRSC15824 | 1586 | 684 |
| Rbp (RIM-binding protein) | DRSC15724 | 63526 | 23405 |
| Rbp (RIM-binding protein) | DRSC15726 | 1.01e5 | 4997 |
| org-1 (optomotor-blind-related-gene-1) | DRSC18810 | 61392 | 3718 |
| hgo (homogentisate 1,2-dioxygenase) | DRSC03544 | 1.45e5 | 5861 |
| CG34301 | DRSC12704 | 55173 | 5065 |
| CG4611 | DRSC10434 | 95912 | 4333 |
| bgm (bubblegum) | DRSC03495 | 62332 | 3396 |
| Mpc1 | DRSC14770 | 75501 | 3717 |
| mtgo (miles to go) | DRSC02245 | 96692 | 4089 |
| mtgo (miles to go) | DRSC02246 | 73035 | 3324 |
| mtgo (miles to go) | DRSC02769 | 87968 | 3680 |
| CheA75a (Chemosensory protein A 75a) | DRSC10807 | 63446 | 3086 |
| Moe (Moesin) | DRSC18684 | 8038 | 736 |
| Hasp (Hig-anchoring scaffold protein) | DRSC02022 | 77002 | 3451 |
| CG8369 | DRSC16413 | 1.30e5 | 7317 |
| Sec71 (Secretory 71) | DRSC01893 | 93319 | 4049 |
| CG12728 | DRSC17883 | 8119 | 688 |
| COX6CL (Cytochrome c oxidase subunit 6C-like) | DRSC00895 | 1.37e5 | 5272 |
| ATPsynepsilonL (ATP synthase, epsilon subunit-like) | DRSC14548 | 96831 | 5880 |
| CG41520 | DRSC21102 | 62273 | 3608 |
| CG41520 | DRSC21103 | 1.36e5 | 6687 |
| CG16825 | DRSC02526 | 85747 | 3502 |
| ben (bendless) | DRSC20310 | 8853 | 816 |
| ben (bendless) | DRSC21261 | 1.43e5 | 333 |
| CG40005 (retired record) + cta | DRSC03763 | 1.31e5 | 4326 |
| olf186-M | DRSC07657 | 1.46e5 | 4838 |
| dlt (discs lost) | DRSC08705 | 83048 | 4059 |
| Uba2 (Ubiquitin-like activating enzyme 2) | DRSC11311 | 99294 | 4052 |
| Mst84B (Male-specific transcript 84B) | DRSC12579 | 1.35e5 | 6630 |
| CG31068 | DRSC13820 | 85064 | 2365 |
| mei-9 (meiotic 9) | DRSC18792 | 97666 | 5267 |
| crok (crooked) | DRSC02593 | 1.10e5 | 4815 |
| CG2698 | DRSC15447 | 1.16e5 | 5470 |
| CG13501 | DRSC04146 | 1.23e5 | 4323 |
| CG31917 + Tfb5 | DRSC02362 | 1.64e5 | 4950 |
| CG31917 + Tfb5 | DRSC02363 | 1.80e5 | 5135 |
| CG4882 | DRSC04495 | 99259 | 4458 |
| GATAe | DRSC14223 | 55949 | 3024 |
| CG8841 | DRSC07286 | 3150 | 193 |

Continued (6 carried over from the part before).
| predicted target | DRSC id | E2F firefly, rep 1 | Renilla normaliser, rep 1 |
| --- | --- | --- | --- |
| CG13501 | DRSC04146 | 1.23e5 | 4323 |
| CG31917 + Tfb5 | DRSC02362 | 1.64e5 | 4950 |
| CG31917 + Tfb5 | DRSC02363 | 1.80e5 | 5135 |
| CG4882 | DRSC04495 | 99259 | 4458 |
| GATAe | DRSC14223 | 55949 | 3024 |
| CG8841 | DRSC07286 | 3150 | 193 |
| sp3 (spermathreecae) | DRSC16354 | 1.41e5 | 8348 |
| CG10353 | DRSC19354 | 83148 | 4138 |
| PPO2 (Prophenoloxidase 2) | DRSC07102 | 3182 | 51 |
| His3:CG33818 + His3:CG33857 + His3:CG33806 + 20 more | DRSC21267 | 48856 | 36322 |
| CG7272 | DRSC10795 | 1.59e5 | 7371 |
| GluRIB + CG42509 (retired record) | DRSC10258 | 96145 | 4079 |
| GluRIB + CG42509 (retired record) | DRSC11177 | 79494 | 3126 |
| Pu (Punch) | DRSC04645 | 65325 | 3484 |
| CG12107 | DRSC06102 | 3433 | 204 |
| ATPsynO (ATP synthase, oligomycin sensitivity conferring protein) | DRSC16780 | 68442 | 3211 |
| CG11404 | DRSC11656 | 1.15e5 | 5281 |
| CG34367 | DRSC02238 | 1.45e5 | 5270 |
| CG34367 | DRSC02850 | 1.51e5 | 5566 |
| CG32087 | DRSC10806 | 1.21e5 | 6335 |
| CG8838 | DRSC00712 | 90375 | 3857 |
| AsnRS (Asparaginyl-tRNA synthetase) | DRSC01990 | 74319 | 2717 |
| CG10477 | DRSC09732 | 74649 | 2991 |
| unc-4 | DRSC20381 | 1.69e5 | 6387 |
| Kdsr (3-ketodihydrosphingosine reductase) | DRSC14245 | 59091 | 3488 |
| CG15450 | DRSC20522 | 1.30e5 | 6805 |
| pinta | DRSC14698 | 83591 | 4013 |
| CG13947 | DRSC00365 | 1.62e5 | 7079 |
| CG14339 | DRSC00369 | 1.64e5 | 6522 |
| CG34268 | DRSC07874 | 1.27e5 | 3990 |
| Def (Defensin) | DRSC07398 | 1.32e5 | 4649 |
| Amun | DRSC19847 | 1.19e5 | 6387 |
| CG5013 | DRSC15695 | 1.17e5 | 5956 |
| CG3611 | DRSC04395 | 1.16e5 | 4152 |
| stc (shuttle craft) | DRSC03620 | 75631 | 3002 |
| Amacr (Alpha-methylacyl-CoA racemase) | DRSC03198 | 79688 | 3149 |
| Obp22a (Odorant-binding protein 22a) | DRSC00088 | 1.38e5 | 5232 |
| CG7903 | DRSC16338 | 1.17e5 | 6420 |
| sima (similar) | DRSC17055 | 1.06e5 | 3914 |
| CG42588 | DRSC09820 | 1.42e5 | 7637 |
| Dh31-R (Diuretic hormone 31 Receptor) | DRSC06647 | 95577 | 4316 |
| Dh31-R (Diuretic hormone 31 Receptor) | DRSC06669 | 98061 | 4580 |
| Ppn (Papilin) | DRSC15328 | 1.11e5 | 5668 |
| ND-B14.7 (NADH dehydrogenase (ubiquinone) B14.7 subunit) | DRSC04544 | 94792 | 4305 |
| CG7675 | DRSC16280 | 63759 | 3172 |
| CG42531 | DRSC05318 | 1.50e5 | 4555 |
| Cpr73D (Cuticular protein 73D) | DRSC11084 | 88904 | 3980 |
| Uro (Urate oxidase) | DRSC03469 | 1.66e5 | 5289 |
